Measurements reported in ChEMBL document CHEMBL2176955, “Discovery of the macrocycle 11-(2-pyrrolidin-1-yl-ethoxy)-14,19-dioxa-5,7,26-triaza-tetracyclo[19.3.1.1(2,6).1(8,12)]heptacosa-1(25),2(26),3,5,8,10,12(27),16,21,23-decaene (SB1518), a potent Janus kinase 2/fms-like tyrosine kinase-3 (JAK2/FLT3) inhibitor for the treatment of myelofibrosis and …” (J Med Chem, 2011).
Converted amounts (≈) assume the structure as drawn.

Experiment: physchem
Conditions: buffer, pH 7

Q: With Cc1cnc2nc1-c1cccc(c1)COCC=CCOCc1cc(ccc1OCCN1CCCC1)N2 as the molecule, how does the solubility read?
A: 178 µg/mL (≈ 366 µM)
